This test has as its target hepatocyte growth factor receptor (HGFR/MET) (human (endogenous in A431 and in primary human airway basal cells)) (UniProt P08581). In words: co-IP; A431 cells, serum-starved overnight, treated with vehicle, 3 ng/ml or 50 ng/ml hHGF for 30 minutes; lysis in IP Cell Lysis Buffer; 2 mg protein per IP, anti-MET antibody overnight at 4°C, Protein A Dynabeads; western blot. (Immunoblotting shows a protein as a band on a membrane.)

By UniProt entry, the sequences of proteins in these tests, tags left out. Residues count along the entry.
UniProt P08581, residues 25-1390: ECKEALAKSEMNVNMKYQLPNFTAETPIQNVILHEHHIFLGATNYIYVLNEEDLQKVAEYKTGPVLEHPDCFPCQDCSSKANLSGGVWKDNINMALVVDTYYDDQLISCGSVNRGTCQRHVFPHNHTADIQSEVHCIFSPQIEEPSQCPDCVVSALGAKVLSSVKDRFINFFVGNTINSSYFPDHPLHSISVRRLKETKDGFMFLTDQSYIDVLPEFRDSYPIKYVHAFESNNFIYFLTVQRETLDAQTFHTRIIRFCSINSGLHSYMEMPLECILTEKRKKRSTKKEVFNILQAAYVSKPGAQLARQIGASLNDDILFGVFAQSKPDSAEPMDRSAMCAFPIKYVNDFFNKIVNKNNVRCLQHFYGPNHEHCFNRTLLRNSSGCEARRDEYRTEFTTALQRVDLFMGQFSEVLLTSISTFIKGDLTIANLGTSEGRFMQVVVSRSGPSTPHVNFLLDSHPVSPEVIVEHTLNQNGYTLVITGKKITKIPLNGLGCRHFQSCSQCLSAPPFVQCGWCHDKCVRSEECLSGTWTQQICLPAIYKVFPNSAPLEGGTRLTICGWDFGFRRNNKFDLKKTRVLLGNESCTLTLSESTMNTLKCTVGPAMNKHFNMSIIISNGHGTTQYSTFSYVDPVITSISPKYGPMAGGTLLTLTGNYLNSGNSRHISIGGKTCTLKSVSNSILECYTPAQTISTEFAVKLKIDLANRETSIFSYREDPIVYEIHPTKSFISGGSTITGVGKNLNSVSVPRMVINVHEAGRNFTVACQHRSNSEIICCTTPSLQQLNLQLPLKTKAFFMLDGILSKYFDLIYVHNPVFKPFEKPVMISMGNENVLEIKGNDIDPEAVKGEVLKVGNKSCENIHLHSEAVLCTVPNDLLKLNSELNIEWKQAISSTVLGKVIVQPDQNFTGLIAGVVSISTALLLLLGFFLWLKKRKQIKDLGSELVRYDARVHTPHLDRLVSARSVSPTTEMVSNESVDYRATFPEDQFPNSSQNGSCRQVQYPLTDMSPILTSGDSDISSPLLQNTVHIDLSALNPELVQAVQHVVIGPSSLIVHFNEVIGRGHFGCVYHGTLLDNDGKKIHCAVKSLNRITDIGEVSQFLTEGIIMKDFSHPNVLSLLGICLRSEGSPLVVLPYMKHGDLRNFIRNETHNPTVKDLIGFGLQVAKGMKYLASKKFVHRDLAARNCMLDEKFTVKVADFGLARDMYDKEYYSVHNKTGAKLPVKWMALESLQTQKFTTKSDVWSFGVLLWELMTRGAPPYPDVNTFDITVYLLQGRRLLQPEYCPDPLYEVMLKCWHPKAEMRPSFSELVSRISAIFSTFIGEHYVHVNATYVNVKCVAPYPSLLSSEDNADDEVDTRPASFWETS
UniProt P40763: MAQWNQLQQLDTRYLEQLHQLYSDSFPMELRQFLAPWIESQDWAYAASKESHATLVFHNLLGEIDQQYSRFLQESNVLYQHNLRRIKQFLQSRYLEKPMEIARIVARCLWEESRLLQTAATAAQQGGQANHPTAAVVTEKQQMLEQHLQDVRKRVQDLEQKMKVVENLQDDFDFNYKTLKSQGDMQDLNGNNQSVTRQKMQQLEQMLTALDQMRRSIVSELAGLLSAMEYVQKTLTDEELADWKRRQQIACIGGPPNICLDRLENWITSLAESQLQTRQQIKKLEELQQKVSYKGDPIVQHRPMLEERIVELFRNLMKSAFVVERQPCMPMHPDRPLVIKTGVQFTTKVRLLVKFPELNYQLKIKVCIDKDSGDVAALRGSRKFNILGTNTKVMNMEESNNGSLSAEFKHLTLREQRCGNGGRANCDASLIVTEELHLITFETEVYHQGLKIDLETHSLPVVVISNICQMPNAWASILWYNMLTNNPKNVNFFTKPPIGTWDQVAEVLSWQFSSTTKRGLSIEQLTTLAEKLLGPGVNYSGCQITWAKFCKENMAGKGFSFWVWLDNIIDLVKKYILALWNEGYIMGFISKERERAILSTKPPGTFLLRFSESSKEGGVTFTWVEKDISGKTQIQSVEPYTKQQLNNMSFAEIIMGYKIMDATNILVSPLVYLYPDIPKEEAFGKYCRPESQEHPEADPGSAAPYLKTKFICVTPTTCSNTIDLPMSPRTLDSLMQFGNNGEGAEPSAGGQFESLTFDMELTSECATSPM

Results are given in words; binding and its absence hold for the method and conditions named. In cells and extracts the contact can be indirect. Some entries that bind do so weakly or less than the wild type.

As to STAT3 (from UniProt P40763 1-770), the binding result is listed as “binds”.

These data come from publication PMC5957441.
